In PMC7437355:
Changes are numbered by the printed parent chain. No constants are given. Whether binding was seen depends on the method and setting. Binding seen in cells or lysates may run through a third protein. Some entries that bind do so weakly or less than the wild type. Tags and fused reporters may be left off the sequences shown.

Sequences of proteins named here, by UniProt entry; tags and fusion partners are left off.
UniProt P21359: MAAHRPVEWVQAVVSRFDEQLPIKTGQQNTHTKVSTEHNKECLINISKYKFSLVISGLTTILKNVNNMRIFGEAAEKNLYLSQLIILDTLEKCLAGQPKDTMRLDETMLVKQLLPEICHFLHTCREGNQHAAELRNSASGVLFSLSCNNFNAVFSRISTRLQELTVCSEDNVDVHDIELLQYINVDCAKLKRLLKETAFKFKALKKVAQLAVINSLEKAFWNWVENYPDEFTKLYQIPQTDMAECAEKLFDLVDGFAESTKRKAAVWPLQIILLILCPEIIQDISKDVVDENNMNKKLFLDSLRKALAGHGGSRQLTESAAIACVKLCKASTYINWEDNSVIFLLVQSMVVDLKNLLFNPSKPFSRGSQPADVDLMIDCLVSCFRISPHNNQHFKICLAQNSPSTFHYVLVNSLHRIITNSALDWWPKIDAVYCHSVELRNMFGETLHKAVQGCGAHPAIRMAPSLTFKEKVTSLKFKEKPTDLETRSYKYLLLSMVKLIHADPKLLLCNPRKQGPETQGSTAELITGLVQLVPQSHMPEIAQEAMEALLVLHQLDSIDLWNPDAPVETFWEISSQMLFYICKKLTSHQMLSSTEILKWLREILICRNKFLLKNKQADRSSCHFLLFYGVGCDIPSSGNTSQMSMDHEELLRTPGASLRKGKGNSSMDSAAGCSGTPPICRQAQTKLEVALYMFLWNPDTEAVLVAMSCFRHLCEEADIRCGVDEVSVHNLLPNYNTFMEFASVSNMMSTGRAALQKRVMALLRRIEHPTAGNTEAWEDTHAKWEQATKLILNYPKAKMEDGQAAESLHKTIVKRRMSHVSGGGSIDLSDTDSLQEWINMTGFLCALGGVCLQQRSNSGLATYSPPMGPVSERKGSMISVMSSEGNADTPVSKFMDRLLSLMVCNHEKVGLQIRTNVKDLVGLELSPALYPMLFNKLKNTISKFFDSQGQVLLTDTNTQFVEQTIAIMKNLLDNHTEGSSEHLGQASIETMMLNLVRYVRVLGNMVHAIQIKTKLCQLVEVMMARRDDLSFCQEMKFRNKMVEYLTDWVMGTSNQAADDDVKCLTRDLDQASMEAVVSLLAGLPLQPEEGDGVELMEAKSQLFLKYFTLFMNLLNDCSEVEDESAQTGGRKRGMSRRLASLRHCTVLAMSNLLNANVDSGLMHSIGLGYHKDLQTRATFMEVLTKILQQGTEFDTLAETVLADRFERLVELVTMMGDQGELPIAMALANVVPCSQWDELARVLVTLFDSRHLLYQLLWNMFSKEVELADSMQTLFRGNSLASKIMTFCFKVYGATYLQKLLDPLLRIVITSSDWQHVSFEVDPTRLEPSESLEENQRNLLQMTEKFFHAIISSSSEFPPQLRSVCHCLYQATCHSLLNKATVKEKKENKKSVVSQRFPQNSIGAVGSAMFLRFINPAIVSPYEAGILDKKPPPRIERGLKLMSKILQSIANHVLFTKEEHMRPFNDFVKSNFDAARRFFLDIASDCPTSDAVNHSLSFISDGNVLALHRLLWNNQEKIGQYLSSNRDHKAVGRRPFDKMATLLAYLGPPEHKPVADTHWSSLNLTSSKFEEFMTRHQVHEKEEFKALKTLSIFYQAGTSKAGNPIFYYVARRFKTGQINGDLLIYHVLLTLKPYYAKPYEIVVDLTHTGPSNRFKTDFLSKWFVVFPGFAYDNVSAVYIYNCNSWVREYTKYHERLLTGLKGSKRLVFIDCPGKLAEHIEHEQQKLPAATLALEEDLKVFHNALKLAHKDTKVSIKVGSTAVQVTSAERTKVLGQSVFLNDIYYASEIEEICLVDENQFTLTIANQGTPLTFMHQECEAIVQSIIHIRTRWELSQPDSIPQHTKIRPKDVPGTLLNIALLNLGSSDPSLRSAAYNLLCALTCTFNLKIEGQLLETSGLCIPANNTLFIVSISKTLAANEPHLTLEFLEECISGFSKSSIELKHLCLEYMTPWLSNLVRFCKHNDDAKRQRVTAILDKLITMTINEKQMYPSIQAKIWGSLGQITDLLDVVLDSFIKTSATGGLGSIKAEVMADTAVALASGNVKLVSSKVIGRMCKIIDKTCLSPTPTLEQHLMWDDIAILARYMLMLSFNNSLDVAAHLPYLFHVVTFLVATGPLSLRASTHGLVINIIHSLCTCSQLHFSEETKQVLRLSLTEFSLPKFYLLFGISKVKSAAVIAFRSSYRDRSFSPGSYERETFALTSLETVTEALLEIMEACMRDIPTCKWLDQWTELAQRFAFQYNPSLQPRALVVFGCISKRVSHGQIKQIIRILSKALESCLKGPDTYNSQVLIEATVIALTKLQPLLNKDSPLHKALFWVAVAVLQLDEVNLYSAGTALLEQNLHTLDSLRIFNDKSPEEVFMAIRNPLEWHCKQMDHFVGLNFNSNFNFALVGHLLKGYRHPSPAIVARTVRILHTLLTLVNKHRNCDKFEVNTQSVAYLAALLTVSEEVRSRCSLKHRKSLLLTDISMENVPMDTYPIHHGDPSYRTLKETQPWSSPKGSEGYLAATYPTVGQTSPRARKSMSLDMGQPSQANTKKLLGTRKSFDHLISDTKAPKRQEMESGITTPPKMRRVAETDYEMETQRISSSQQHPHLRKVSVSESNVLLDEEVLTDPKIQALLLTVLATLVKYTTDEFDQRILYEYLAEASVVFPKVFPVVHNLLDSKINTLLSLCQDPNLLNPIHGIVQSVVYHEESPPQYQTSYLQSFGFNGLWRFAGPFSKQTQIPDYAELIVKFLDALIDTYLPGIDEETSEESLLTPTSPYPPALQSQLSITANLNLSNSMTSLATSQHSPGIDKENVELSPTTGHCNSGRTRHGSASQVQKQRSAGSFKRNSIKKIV

How the values were obtained:
Experiment in all cases: co-IP; anti-FLAG IP of SPRED1-FLAG constructs from transiently transfected HEK293T lysate, western blot for endogenous NF1
[1] = biological target: T1, SPRED1(S105A)-FLAG, phosphodeficient, expressed in HEK293T (human) (UniProt Q7Z699)
T1 sequence: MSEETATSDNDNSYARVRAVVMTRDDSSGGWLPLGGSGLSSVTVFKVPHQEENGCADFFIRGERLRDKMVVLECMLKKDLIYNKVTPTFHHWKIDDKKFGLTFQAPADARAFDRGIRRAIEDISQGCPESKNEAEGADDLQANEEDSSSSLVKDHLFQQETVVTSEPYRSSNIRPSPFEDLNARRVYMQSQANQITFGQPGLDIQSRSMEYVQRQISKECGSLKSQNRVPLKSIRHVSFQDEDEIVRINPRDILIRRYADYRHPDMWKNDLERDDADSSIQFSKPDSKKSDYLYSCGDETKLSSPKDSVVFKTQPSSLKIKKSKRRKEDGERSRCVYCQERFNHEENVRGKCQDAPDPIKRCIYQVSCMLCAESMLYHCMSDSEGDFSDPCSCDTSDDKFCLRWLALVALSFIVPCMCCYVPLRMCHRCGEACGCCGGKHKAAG

[2] = biological target: T2, SPRED1(S105D)-FLAG, phosphomimetic, expressed in HEK293T (human) (UniProt Q7Z699)
T2 sequence: T1 sequence with A105D

[3] = biological target: T3, SPRED1-FLAG, wild type, expressed in HEK293T (human) (UniProt Q7Z699)
T3 sequence: T1 sequence with A105S

binding [1]: binds
binding [2]: binds
binding [3]: binds
Substance: endogenous NF1 (neurofibromin) in HEK293T (from UniProt P21359 1-2839)
